These are yes or no findings as the source states them, for the method shown. For part of these data: Binding can be weak; no strength is given.

Amino acid sequences for entries named in this document (tags omitted). A change or cut given only in a name is not applied to a line headed by its entry.
UniProt Q9H4E5: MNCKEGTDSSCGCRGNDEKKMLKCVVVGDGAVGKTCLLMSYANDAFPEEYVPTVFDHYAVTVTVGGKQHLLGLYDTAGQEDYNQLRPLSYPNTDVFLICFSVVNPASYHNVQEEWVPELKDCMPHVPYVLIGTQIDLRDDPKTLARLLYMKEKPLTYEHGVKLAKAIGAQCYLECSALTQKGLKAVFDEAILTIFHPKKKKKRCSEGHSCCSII
UniProt Q9Y2X7: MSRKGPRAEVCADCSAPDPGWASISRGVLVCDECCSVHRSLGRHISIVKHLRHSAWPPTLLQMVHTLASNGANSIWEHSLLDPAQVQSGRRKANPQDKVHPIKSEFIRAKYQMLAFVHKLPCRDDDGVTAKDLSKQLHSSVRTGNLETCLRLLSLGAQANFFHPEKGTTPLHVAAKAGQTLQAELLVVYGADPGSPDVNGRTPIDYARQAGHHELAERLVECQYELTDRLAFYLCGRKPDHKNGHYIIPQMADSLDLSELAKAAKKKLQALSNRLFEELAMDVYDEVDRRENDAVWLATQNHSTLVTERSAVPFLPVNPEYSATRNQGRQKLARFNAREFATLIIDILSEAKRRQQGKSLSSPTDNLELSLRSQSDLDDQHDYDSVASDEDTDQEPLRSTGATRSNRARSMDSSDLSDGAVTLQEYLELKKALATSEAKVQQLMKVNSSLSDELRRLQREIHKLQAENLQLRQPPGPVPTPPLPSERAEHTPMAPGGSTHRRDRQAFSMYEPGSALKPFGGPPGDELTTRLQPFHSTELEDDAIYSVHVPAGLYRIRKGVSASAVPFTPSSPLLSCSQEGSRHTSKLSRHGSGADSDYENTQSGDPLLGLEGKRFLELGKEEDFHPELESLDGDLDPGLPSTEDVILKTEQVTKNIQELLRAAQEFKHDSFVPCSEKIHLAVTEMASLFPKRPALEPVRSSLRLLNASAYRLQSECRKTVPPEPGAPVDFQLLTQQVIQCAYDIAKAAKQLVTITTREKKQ
UniProt Q14155: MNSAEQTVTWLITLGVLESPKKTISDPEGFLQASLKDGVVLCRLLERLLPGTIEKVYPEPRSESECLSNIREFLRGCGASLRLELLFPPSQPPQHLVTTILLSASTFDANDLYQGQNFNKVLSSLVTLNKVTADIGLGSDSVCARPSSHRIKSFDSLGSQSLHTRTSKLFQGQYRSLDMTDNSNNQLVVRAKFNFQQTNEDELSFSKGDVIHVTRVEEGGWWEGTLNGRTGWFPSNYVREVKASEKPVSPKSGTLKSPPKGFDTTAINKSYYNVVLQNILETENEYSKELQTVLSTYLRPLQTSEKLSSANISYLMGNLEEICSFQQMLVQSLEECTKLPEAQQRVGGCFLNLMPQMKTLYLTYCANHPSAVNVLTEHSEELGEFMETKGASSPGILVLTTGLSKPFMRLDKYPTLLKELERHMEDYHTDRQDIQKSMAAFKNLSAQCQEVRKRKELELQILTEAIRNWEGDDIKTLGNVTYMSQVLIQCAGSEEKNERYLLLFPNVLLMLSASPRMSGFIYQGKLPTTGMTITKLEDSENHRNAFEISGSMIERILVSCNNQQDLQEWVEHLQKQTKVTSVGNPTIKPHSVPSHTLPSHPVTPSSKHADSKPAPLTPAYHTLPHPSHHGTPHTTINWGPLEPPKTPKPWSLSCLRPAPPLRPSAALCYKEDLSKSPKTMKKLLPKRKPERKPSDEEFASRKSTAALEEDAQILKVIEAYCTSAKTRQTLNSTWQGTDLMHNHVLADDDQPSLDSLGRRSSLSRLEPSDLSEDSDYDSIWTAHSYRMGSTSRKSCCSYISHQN

The target of assay [1] is Gal4 DNA-binding domain fusion of daRhoJ (Q79L) lacking the C-terminal CAAX box (UniProt Q9H4E5). Description: two-hybrid; Gal4 DNA-binding domain fusions (pGBT9) and Gal4 activation domain fusions (pACT2) in yeast PJ69-4A; growth on plates lacking histidine with 3 mM 3-AT, 3 to 5 days at 30°C.
Assay [2] concerns the target Gal4 DNA-binding domain fusion of dnRhoJ (T35N) lacking the C-terminal CAAX box (UniProt Q9H4E5). The assay is described as above.

On to “Gal4 activation domain fusion of GIT1 (from UniProt Q9Y2X7 1-761)”, for which the binding entry in assay [1] was “binds”; in assay [2], “no binding”. For the substance “Gal4 activation domain fusion of β-PIX (from UniProt Q14155 1-803)”, the binding entry in assay [1] was “no binding”.

For the origin of these results see article PMC4106786.
